Experimental data: article PMC7819943, “Rice protein-binding microarrays: a tool to detect cis-acting elements near promoter regions in rice”
The list shows a part of the results.

What follows are sequences tested against T1, OsSMF1 (Oryza sativa, UniProt Q6ZLB0 1-436) (assay: protein-binding microarray (RPBM); PBS, 2% BSA, 51.3 ng/ul salmon testes DNA, 50 uM zinc acetate, 200 nM TF, 25 C, 1 h; high values mean tight binding). Settings: protein: recombinant; tags: N-terminal polyhistidine and DsRed monomer fusion (pET32a); chain copies: 2; label: CyDye5-dUTP incorporated in the synthesized complementary strand; 3' TTTTT single-stranded linker to array surface; dsDNA, one strand shown.
T1 sequence: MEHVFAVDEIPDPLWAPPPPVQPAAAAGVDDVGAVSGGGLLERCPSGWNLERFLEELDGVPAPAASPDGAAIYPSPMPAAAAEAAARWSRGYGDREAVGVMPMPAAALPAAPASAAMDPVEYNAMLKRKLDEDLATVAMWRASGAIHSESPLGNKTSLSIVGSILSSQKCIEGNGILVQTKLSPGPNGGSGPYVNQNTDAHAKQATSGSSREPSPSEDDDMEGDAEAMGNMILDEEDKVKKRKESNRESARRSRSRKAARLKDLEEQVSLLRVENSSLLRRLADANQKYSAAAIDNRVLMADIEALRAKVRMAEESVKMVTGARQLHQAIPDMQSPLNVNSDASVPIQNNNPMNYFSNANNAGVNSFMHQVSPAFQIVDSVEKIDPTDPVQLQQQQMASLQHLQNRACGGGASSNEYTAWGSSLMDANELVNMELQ
Procedure, shortened: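 Polyhistidine-tagged DsRed fusions of transcription factors, joined at the N-terminus, were expressed in E. coli BL21-CodonPlus and isolated on Ni–NTA. They were incubated at 200 nM for 1 h at 25 °C on a custom Agilent array, double-stranded and BSA-blocked, in PBS with 2% BSA, salmon testes DNA and 50 µM zinc acetate. The binding signal is per-feature fluorescence intensity (arbitrary units) read on an Axon 4000B scanner after washing.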

Sequence	binding signal
TACAGATCGATGCGACACTCTGACACGTTACGCTCTCTCTCGGAGTCACCTAGTGCAG	6440 fluorescence intensity (a.u.)
TTTGATGGTGGTTTTGGCTGACGTGGCACCTACATGGCATCGGAGTCACCTAGTGCAG	42900 fluorescence intensity (a.u.)
GGAGTTCTACGGCTGACAAGGAAGCCCACGTACATGTAGCCGGAGTCACCTAGTGCAG	4430 fluorescence intensity (a.u.)
CTCAAACTTGTTCGACTGTGTCATCCCGGTCCCTAAACTTCGGAGTCACCTAGTGCAG	4940 fluorescence intensity (a.u.)
GCCCAGCCCACACGGGGTAGCCCGACCGGCACGTGTCGGCCGGAGTCACCTAGTGCAG	3520 fluorescence intensity (a.u.)
CCACGGCGAAAAGCTGCCAGGTGGGCCCACGGTCCCGCGGCGGAGTCACCTAGTGCAG	36200 fluorescence intensity (a.u.)
CTCTCTTCTCTTCTCCACGTCATCATTTAGCCGATTTATACGGAGTCACCTAGTGCAG	20600 fluorescence intensity (a.u.)
CGCCACGGGTTTTGCCTGCCGCAGGCGGTGGAATCGCGTGCGGAGTCACCTAGTGCAG	3430 fluorescence intensity (a.u.)
GCGTTCGGTTGTTGGTGTTGGGAACTAAATCCGTCACGCACGGAGTCACCTAGTGCAG	3560 fluorescence intensity (a.u.)
ATTTAGATCGAATCGAATCGAATCCCACGCGGCGCGGAGCCGGAGTCACCTAGTGCAG	4290 fluorescence intensity (a.u.)
GTTTAGGAAGCCTGGCAGCGACCGCGGTAGGGACTCGTCGCGGAGTCACCTAGTGCAG	4390 fluorescence intensity (a.u.)
TCCCAACCCCTCCAAAAGAACATTCCCAACTCACCTCCTTCGGAGTCACCTAGTGCAG	3140 fluorescence intensity (a.u.)
ACAGGGGATGAAATATAGAATTAAAGCCACTCCTAAAGCCCGGAGTCACCTAGTGCAG	3190 fluorescence intensity (a.u.)
CTCGGATGGGCGTCGAGCGGCGGAGCTTGCACCAGAGTTCCGGAGTCACCTAGTGCAG	27600 fluorescence intensity (a.u.)
AAGAGCCAGAGCCCGCGCATGGGGAGCGTCATCCTCGGCGCGGAGTCACCTAGTGCAG	3220 fluorescence intensity (a.u.)
GCGTAAACCCTAGCGTAGGCGCGTAGCTGGCATCTCCGTCCGGAGTCACCTAGTGCAG	4630 fluorescence intensity (a.u.)
ATTTGAATGAAATAGTCTGACGTTGATTACAGGCACGCGCCGGAGTCACCTAGTGCAG	3650 fluorescence intensity (a.u.)
TAGTTGGCTTCCATTATCTGATTCGTGATACCTTGCGTGTCGGAGTCACCTAGTGCAG	4440 fluorescence intensity (a.u.)
CACACACTGTTAACTTGAACTGACTCAGACAAGGTGCACCCGGAGTCACCTAGTGCAG	3690 fluorescence intensity (a.u.)
TTTTCAGACGTTTTGCAATAGAGAATGTCAATGTCCATTGCGGAGTCACCTAGTGCAG	13600 fluorescence intensity (a.u.)
ATTGCAACCGGAGAGCCTGACCAAAGAAATTCAGATCCTTCGGAGTCACCTAGTGCAG	3200 fluorescence intensity (a.u.)

Another view of some results above:

| Sequence | binding signal |
| --- | --- |
| GCCCAGCCCACACGGGGTAGCCCGACCGGCACGTGTCGGCCGGAGTCACCTAGTGCAG | 3520 fluorescence intensity (a.u.) |
| CTCGGATGGGCGTCGAGCGGCGGAGCTTGCACCAGAGTTCCGGAGTCACCTAGTGCAG | 27600 fluorescence intensity (a.u.) |
| GCGTAAACCCTAGCGTAGGCGCGTAGCTGGCATCTCCGTCCGGAGTCACCTAGTGCAG | 4630 fluorescence intensity (a.u.) |
| ATTTGAATGAAATAGTCTGACGTTGATTACAGGCACGCGCCGGAGTCACCTAGTGCAG | 3650 fluorescence intensity (a.u.) |

Next part:

Sequence	binding signal
ATATATATATATATATATATATAAGTTTCCACGAATAAGGCGGAGTCACCTAGTGCAG	3200 fluorescence intensity (a.u.)
GGTGGACTCCAGTGGTTGCCTTGCATACTTAGCTTGCCTTCGGAGTCACCTAGTGCAG	3460 fluorescence intensity (a.u.)
TCTCAGCCATTCGATCGGTGGATGAGATCGCATATGAACCCGGAGTCACCTAGTGCAG	24300 fluorescence intensity (a.u.)
ATCTAGACACGCGCGCGCGCGCGCACATATATATATATATCGGAGTCACCTAGTGCAG	42600 fluorescence intensity (a.u.)
GTCCGGCGAGTTCACCATCACCCTCGACCTCGAGACCAAGCGGAGTCACCTAGTGCAG	17000 fluorescence intensity (a.u.)
GCCGCCGTCCACGGCAGCCTCTACGCGTCGCTGCGCACCACGGAGTCACCTAGTGCAG	4310 fluorescence intensity (a.u.)
ACGTGGTTCTCTGCTGATAATGTCAGAATGATTCATGAGCCGGAGTCACCTAGTGCAG	3790 fluorescence intensity (a.u.)
AGATAATTGTGTCATCAGGAGGCCATGGCCATGATAGCAACGGAGTCACCTAGTGCAG	3540 fluorescence intensity (a.u.)
TTCGCTAACGCCGCGCGTCACGTAGACACGTACTACTAGCCGGAGTCACCTAGTGCAG	49600 fluorescence intensity (a.u.)
GCCGCCTCCGTCACGGGGACCCGCCGCCTCTGCATTCTCTCGGAGTCACCTAGTGCAG	3150 fluorescence intensity (a.u.)
TACAGGACACGTCAGTCGATCCCCACAGTCTTCTTCCTCTCGGAGTCACCTAGTGCAG	16600 fluorescence intensity (a.u.)
CAACCATGTGACAGCTAGATCCGTGTGATTTACCAGGTCACGGAGTCACCTAGTGCAG	4640 fluorescence intensity (a.u.)
TGAACCAGCGGAGTCATACAATTAGTTTCTCCCAACAGTGCGGAGTCACCTAGTGCAG	3190 fluorescence intensity (a.u.)
ATCTCATTGTTTGTTACCAAATCCGGTTTACACCATTTTACGGAGTCACCTAGTGCAG	4120 fluorescence intensity (a.u.)
TCATGTATTACTGCATTTCATCAATGCGTCACATGCACGGCGGAGTCACCTAGTGCAG	5860 fluorescence intensity (a.u.)
TATAAGGACCCGACACACAACATCTTTGACGTGTCCCCGTCGGAGTCACCTAGTGCAG	8620 fluorescence intensity (a.u.)
AATAAATACGCCCACTGACGTGTGGGCCATACCCTCCTCCCGGAGTCACCTAGTGCAG	7770 fluorescence intensity (a.u.)
GGTGGGTGTGTGCTTGTTTCGGCGTGTGATTTGGGCGGAGCGGAGTCACCTAGTGCAG	3230 fluorescence intensity (a.u.)
CCACTAGCGCAGTAGCGCCTCCATGTATACGAGTGGTGTGCGGAGTCACCTAGTGCAG	3180 fluorescence intensity (a.u.)
GGGATTGGGGTAGAGCCAGCTGACGAGGTGTAATCAGGATCGGAGTCACCTAGTGCAG	3140 fluorescence intensity (a.u.)
AGCTGCCTCTGCAACCCACGTCAAGAGCTCCCCACATCACCGGAGTCACCTAGTGCAG	4250 fluorescence intensity (a.u.)

A second format for part of the listing above:
Sequence | binding signal
ATTGCAACCGGAGAGCCTGACCAAAGAAATTCAGATCCTTCGGAGTCACCTAGTGCAG | 3200 fluorescence intensity (a.u.)
ATATATATATATATATATATATAAGTTTCCACGAATAAGGCGGAGTCACCTAGTGCAG | 3200 fluorescence intensity (a.u.)

(listing goes on)

Sequence	binding signal
CCAGCCTCCACTGTGCTCCTCGTGTCCGCCGTTCTGATCTCGGAGTCACCTAGTGCAG	3200 fluorescence intensity (a.u.)
CACCACGTCTCGCGCCGCAGCGTATGCACACCTCCTCAGCCGGAGTCACCTAGTGCAG	3970 fluorescence intensity (a.u.)
TTGAGCTCGATCTGACACGAAGGCACGTGGCCAACTAAGGCGGAGTCACCTAGTGCAG	6540 fluorescence intensity (a.u.)
CAAATATACATACATTCATATATAAACACGCTAACACGCACGGAGTCACCTAGTGCAG	3420 fluorescence intensity (a.u.)
CACTCCACCGCCGACGCCGTGCCACCGCTCCTACACAGACCGGAGTCACCTAGTGCAG	3650 fluorescence intensity (a.u.)
ATGTGCTTATAATGGTAGGTTGTACGTACGTGCGTTTGTGCGGAGTCACCTAGTGCAG	3700 fluorescence intensity (a.u.)
AAGGGGAGGGGAGAGAGGAGTGGAGTGGGGCTCGGATTAGCGGAGTCACCTAGTGCAG	3920 fluorescence intensity (a.u.)
GCACGTTGTAGTAGATATTTTCCTTTCTCTGCTTACATAACGGAGTCACCTAGTGCAG	3170 fluorescence intensity (a.u.)
AGATGCTGGTGTCATAATATGTGCTAGGCCCGTCACCCTGCGGAGTCACCTAGTGCAG	4400 fluorescence intensity (a.u.)
AGAAGGAATGCACTAGGATATTATCTTTTCGCTTATACTTCGGAGTCACCTAGTGCAG	33200 fluorescence intensity (a.u.)
TTTCCTATTGTAAAGTTCAAGAAATGCAAGGAATAACCATCGGAGTCACCTAGTGCAG	27000 fluorescence intensity (a.u.)
GCATTTGCCACCTCGACCAAGAAGCCCATTGACGGGGACGCGGAGTCACCTAGTGCAG	3720 fluorescence intensity (a.u.)
GTAATATGCATAATAGTCATCACATGATTGATATCTCGTCCGGAGTCACCTAGTGCAG	3470 fluorescence intensity (a.u.)
CTCAAAACCACACCGTTAAATGTTTTACCCTACTCTCGTACGGAGTCACCTAGTGCAG	39200 fluorescence intensity (a.u.)
AATAGCAGCTGCCCTGGTGCTGCTTCTCACGTTTTAGAGCCGGAGTCACCTAGTGCAG	16000 fluorescence intensity (a.u.)
AATGGACCACCGTTAGTCCACCAGTCAGCCAACCAATGGCCGGAGTCACCTAGTGCAG	3360 fluorescence intensity (a.u.)
ATCGGTCCTACACCTCCTAGCCAACTGCAGACTGTCGAGACGGAGTCACCTAGTGCAG	3380 fluorescence intensity (a.u.)
CGGCCGGCGGAGGCGGAGGCCGTGGCGGCGGCGGCGGGGTCGGAGTCACCTAGTGCAG	4010 fluorescence intensity (a.u.)
GCTGACCCGTCACTGACAGGGTGGGCCCCACGCCCCGGCGCGGAGTCACCTAGTGCAG	4400 fluorescence intensity (a.u.)
AATTGAGAGGGCATCATCAGATTAAAGCTATGGCATGGCGCGGAGTCACCTAGTGCAG	26200 fluorescence intensity (a.u.)
AGACAACACTTGCCCATCTCGGCATCGTGACGCGCCGCCGCGGAGTCACCTAGTGCAG	3410 fluorescence intensity (a.u.)

Sequence	binding signal
AGGCGCCACGTGGACATCGAGATGGTGCGGCGGAGGCTGGCGGAGTCACCTAGTGCAG	16800 fluorescence intensity (a.u.)
ACCTACGCCAGCCACCACGACCATCCATCCTCTGCTGCACCGGAGTCACCTAGTGCAG	3630 fluorescence intensity (a.u.)
TCACGCCATCCCGTGTGATTCAGTCGATCGGCCAGCGTGGCGGAGTCACCTAGTGCAG	6730 fluorescence intensity (a.u.)
ACTACAATATTAATGTATGGTCCTACCTGTCATACACACACGGAGTCACCTAGTGCAG	4650 fluorescence intensity (a.u.)
ATCTCTCCTCTAGGCGTCTTTTGGTATATAGGAGTATCTCCGGAGTCACCTAGTGCAG	25400 fluorescence intensity (a.u.)
GGCAAATGGGGCCTCCACGTGCTCTTATCCTCATGCAAGTCGGAGTCACCTAGTGCAG	5300 fluorescence intensity (a.u.)
TTGTGTTATTCATGTCATAATGTATTCATGCTCTTGGATTCGGAGTCACCTAGTGCAG	3340 fluorescence intensity (a.u.)
GGTGGTTAGGCTACTTGTAATGGTACACATTGCTATCAAACGGAGTCACCTAGTGCAG	4080 fluorescence intensity (a.u.)
TTCAATTCTGCCATTTGTTTCTGACTTGGATACCCTTGCCCGGAGTCACCTAGTGCAG	4040 fluorescence intensity (a.u.)
ATATATGCTACTAGTTATTCCTCGTAAACAAACGATTCATCGGAGTCACCTAGTGCAG	25600 fluorescence intensity (a.u.)
CGGGGCGGCTGGCTTGACGCGTCATCTTCCCCGCGAAAATCGGAGTCACCTAGTGCAG	6570 fluorescence intensity (a.u.)
TGGCATGTAAGATGTCACGCGTGAGCCTACCTGGTTGCGACGGAGTCACCTAGTGCAG	3570 fluorescence intensity (a.u.)
GTCATCACCACCACGCGAGCTCGCTCAGCAACACGACACGCGGAGTCACCTAGTGCAG	3590 fluorescence intensity (a.u.)
CACCAAGGTACTCTTGTGACGCACGCACTCATCGCCATCGCGGAGTCACCTAGTGCAG	4340 fluorescence intensity (a.u.)
ACCACACACACACTGACACTGTGACACAACACAACACGGCCGGAGTCACCTAGTGCAG	6920 fluorescence intensity (a.u.)
AGAGGGGCAGGCCCACTGACACGTGGGGTCCACCCGCCGTCGGAGTCACCTAGTGCAG	16400 fluorescence intensity (a.u.)
ATTGTTCGATTCGACACGACGACACTATCCCCTCCCACTTCGGAGTCACCTAGTGCAG	4190 fluorescence intensity (a.u.)
TAGTTTTATCAACCCTCTCTCCACGTGCCATCCCTGCTTTCGGAGTCACCTAGTGCAG	8400 fluorescence intensity (a.u.)
AACGGCAGGAAGCACATCCACGTGGAAGATCACTGCAATACGGAGTCACCTAGTGCAG	9720 fluorescence intensity (a.u.)
CGTTCTGACGACGAACACACGGAGATAGAGAAAGAGAGAGCGGAGTCACCTAGTGCAG	33200 fluorescence intensity (a.u.)
GGTCGAGCATCCCGTCACCTTCCCACTCCTCATTTGCTCGCGGAGTCACCTAGTGCAG	4790 fluorescence intensity (a.u.)
